PubChem BioAssay AID504774 – Drosophila RNAi Screening Center, 2011

Aim: 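Knock-downs that shift viability of MMS-exposed cells relative to untreated ones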 (primary screen)
System: Drosophila Kc167 cells
Knock-down reagent: long dsRNA against Drosophila genes, about 0.25 µg dsRNA per well
Timing: about 6 days: 3 days knock-down, then 3 days with or without MMS
Conditions: methyl methanesulphonate 0.004% (w/v) for 3 days after knock-down
Measurement: 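ATP-dependent luminescence as a measure of live cells in MMS-exposed wells, quantile normalised within each plate, with replicate values also given as a mean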
Reading the numbers: mean viability with MMS and viability with MMS: higher = more surviving cells after MMS
In all, the deposit lists about 23,000 reagents; shown is a random part of those that have a named target and a result. 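Values are quantile-normalised luminescence on an arbitrary scale; higher means more cells surviving MMS.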 A plus sign joins genes that one reagent is predicted to hit. Further read-outs or replicates are left out here.

gene	amplicon	mean viability with MMS	viability with MMS, replicate 1
Pgant4	DRSC00717	3.73e6	4.17e6
CG16787	DRSC04282	3.56e6	4.21e6
CG42523	DRSC00251	3.37e6	3.91e6
CG33110	DRSC14694	2.93e6	3.59e6
CG33110	DRSC16137	3.45e6	3.97e6
CG33477	DRSC22934	3.43e6	3.89e6
Cyp9f3	DRSC16636	3.84e6	4.18e6
CG34001	DRSC09042	3.54e6	4.08e6
CaMKI	DRSC17162	3.79e6	4.15e6
Cyp28c1	DRSC20236	3.57e6	4.12e6
Kdm2	DRSC14286	3.45e6	3.89e6
salm	DRSC03606	3.57e6	4.23e6
CG12133	DRSC06108	3.58e6	4.12e6
croc	DRSC11884	3.62e6	4.03e6
Or24a	DRSC00768	3.33e6	4.03e6
bumpel	DRSC16100	3.76e6	4.15e6
h-cup	DRSC15973	3.39e6	3.82e6
CG4073	DRSC15542	3.58e6	4.04e6
CG14605	DRSC12549	3.56e6	4.14e6
CG8289	DRSC20101	3.75e6	4.19e6
Neurl4	DRSC10638	3.50e6	3.96e6
CG14325	DRSC14804	3.45e6	3.97e6
CSN1a	DRSC01951	3.46e6	3.93e6
CG14246	DRSC14741	3.67e6	4.06e6
Dci	DRSC08360	1.82e6	4.13e6
foi	DRSC10719	3.27e6	3.63e6
CG17780 + CG17781	DRSC15266	3.52e6	3.97e6

Copied from the listing (6 entries):
gene	amplicon	mean viability with MMS	viability with MMS, replicate 1
Cyp9f3	DRSC16636	3.84e6	4.18e6
CG34001	DRSC09042	3.54e6	4.08e6
CaMKI	DRSC17162	3.79e6	4.15e6
Cyp28c1	DRSC20236	3.57e6	4.12e6
Kdm2	DRSC14286	3.45e6	3.89e6
salm	DRSC03606	3.57e6	4.23e6

Next reagents:
gene	amplicon	mean viability with MMS	viability with MMS, replicate 1
Rab26	DRSC11837	3.26e6	3.68e6
Rab26	DRSC11838	3.39e6	3.94e6
Rab26	DRSC11839	3.42e6	3.97e6
CG3857	DRSC18542	3.68e6	4.23e6
CG15082	DRSC06513	3.28e6	3.69e6
NimB4	DRSC01884	3.58e6	4.04e6
CG14014	DRSC02345	3.61e6	4.13e6
Gpb5	DRSC21241	3.59e6	3.97e6
Pym	DRSC22492	2.70e6	3.63e6
Pym	DRSC23017	3.33e6	3.89e6
RpL24-like	DRSC16111	3.50e6	4.00e6
CG7786	DRSC07045	3.82e6	4.34e6
Mabi	DRSC02489	3.76e6	3.94e6
FucTB	DRSC02745	3.63e6	4.09e6
CG3356	DRSC04358	3.69e6	4.05e6
Lcp65Af	DRSC11213	3.79e6	4.27e6
CG4080	DRSC10398	3.58e6	4.14e6
CG8060	DRSC07064	3.61e6	4.12e6
CG14024	DRSC00868	3.32e6	3.70e6
CG14024	DRSC02354	3.58e6	4.03e6
